Among the data in publication PMC6662822, “Rational drug-design approach supported with thermodynamic studies — a peptide leader for the efficient bi-substrate inhibitor of protein kinase CK2” (Scientific Reports, 2019) are binding values, retold here.

Amino acid sequences for entries named in this document (tags omitted).
UniProt P68400: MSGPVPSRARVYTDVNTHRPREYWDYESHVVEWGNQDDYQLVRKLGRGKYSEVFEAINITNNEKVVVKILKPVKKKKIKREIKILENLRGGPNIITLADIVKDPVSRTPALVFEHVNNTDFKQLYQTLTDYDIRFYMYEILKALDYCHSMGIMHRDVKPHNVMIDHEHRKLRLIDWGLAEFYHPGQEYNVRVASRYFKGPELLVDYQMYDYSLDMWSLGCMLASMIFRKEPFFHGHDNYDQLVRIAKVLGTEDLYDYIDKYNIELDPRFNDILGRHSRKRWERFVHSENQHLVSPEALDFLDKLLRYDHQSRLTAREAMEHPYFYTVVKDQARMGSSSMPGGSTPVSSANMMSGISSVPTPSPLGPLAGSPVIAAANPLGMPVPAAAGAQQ

The experiment concerns the target catalytic subunit of human protein kinase CK2 (human) (UniProt P68400). The experiment in a line: pull-down; His-tagged CK2α immobilised on cobalt resin (Pierce His Protein Interaction Pull-Down Kit); peptide library [KGDE]-[DE]-[ST]-[DE]3-NH2 in TBS, overnight at 4 °C; eluted with 2 M glycine pH 2.5; peptides identified by LC-MS (ESI-MS) by mass, against the library itself and a column without CK2α; both purified.

These are yes or no findings as the source states them, for the method shown. Some binding calls cover weakened binding; strength is not graded here.

Consider EETEEE (C-terminal amide) [EETEEE-NH2], for which the binding result is “binds”.

Regarding KETEEE (C-terminal amide) [KETEEE-NH2], the binding entry is given as “binds”.
